In PMC10505911:
These are yes or no findings as the source states them, for the method shown. In cells and extracts the contact can be indirect. Binding can be weak; no strength is given. Tags and fused reporters may be left off the sequences shown.

Target: RFP-RNF26 ΔRING
Experiment: co-IP; U2OS co-transfected with RFP-RNF26 variants and HA-HERP1 or HA-HRD1; lysis in 1% DMNG, 150 mM NaCl, 50 mM Tris-HCl pH 7.5, 5 mM MgCl2; RFP-TRAP beads; western blot

binding: binds
B1: HA-HERP1 (protein, UniProt Q15011 1-391)
chain: MESETEPEPVTLLVKSPNQRHRDLELSGDRGWSVGHLKAHLSRVYPERPRPEDQRLIYSGKLLLDHQCLRDLLPKQEKRHVLHLVCNVKSPSKMPEINAKVAESTEEPAGSNRGQYPEDSSSDGLRQREVLRNLSSPGWENISRPEAAQQAFQGLGPGFSGYTPYGWLQLSWFQQIYARQYYMQYLAATAASGAFVPPPSAQEIPVVSAPAPAPIHNQFPAENQPANQNAAPQVVVNPGANQNLRMNAQGGPIVEEDDEINRDWLDWTYSAATFSVFLSILYFYSSLSRFLMVMGATVVMYLHHVGWFPFRPRPVQNFPNDGPPPDVVNQDPNNNLQEGTDPETEDPNHLPPDRDVLDGEQTSPSFMSTAWLVFKTFFASLLPEGPPAIAN
